No constants are given. Whether binding was seen depends on the method and setting. A result given as binding can be weak or reduced; the word gives no strength.

Consider four molecules from patent US20050175608A1 (Kyowa Kirin, published 2005).

The target in experiment [1] is FGF-8 (manufactured by R & D) (Homo sapiens (Human)). The experiment is described as follows: BIAcore 2000, immobilised FGF-8.
Experiment [2] has the same target. The experiment is described as follows: BIAcore 2000, immobilised FGF-8 (results of Reference Example 2). (In general: SPR reads the build-up and loss of mass on a sensor chip optically.)
The target is the same in experiment [3]. The experiment is described as follows: BIAcore 2000, FGF-8 amine-coupled to CM5 chip (4498 RU), antibody 50 µg/mL; almost no dissociation observed.

B1: anti-FGF-8 neutralizing CDR-grafted antibody HV0LV6 (antibody, V domains shown)
VH: QVQLVQSGAEVKKPGASVKVSCKASGYTFTDYYLNWVRQAPGQGLEWMGEIDPGSDSIYYNENLEGRVTITADTSTSTAYMELSSLRSEDTAVYYCARYGYSRYDVRFVYWGQGTLVTVSS
VL: DVVMTQSPLSLPVSLGEPASISCRSSQSLVHSNGRTYLEWYLQKPGQSPKVLIYKVSNRISGVPDRFSGSGSGTDFTLKISRVEAEDVGVYFCFQGSHVPYTFGQGTKVEIK
notes: HV.0 + LV.6; YB2/0 cell-derived; also called KM8037
B1: the binding result in experiment [1], in experiment [2] and in experiment [3] was “binds” throughout.

B2: anti-FGF-8 neutralizing chimeric antibody KM3334 (antibody, V domains shown)
VH: QVQLQQSGAEVARPGASVKLSCKASGYTFTDYYLNWVKQRSGQGLEWIGEIDPGSDSIYYNENLEGRATLTADKSSSTAYMQLNSLTSEDSAVYFCARYGYSRYDVRFVYWGQGTLVTVST
VL: DVLMTQTPLSLPVSLGDQASISCRSSQSLVHSNGRTYLEWYLQKPGQSPKVLIYKVSNRISGVPDRFSGSGSGTDFTLKISRVEAEDLGVYFCFQGSHVPYTFGGGTKLEIK
notes: expressed in YB2/0 cells; also called human chimeric antibody KM3334
In the case of B2, in experiment [3], the binding entry is reported as “binds”.

B3: anti-FGF-8 neutralizing CDR-grafted antibody HV6LV6 (antibody, V domains shown)
VH: QVQLVQSGAEVARPGASVKVSCKASGYTFTDYYLNWVRQRSGQGLEWIGEIDPGSDSIYYNENLEGRVTITADTSTSTAYMELSSLRSEDTAVYFCARYGYSRYDVRFVYWGQGTLVTVSS
VL: DVVMTQSPLSLPVSLGEPASISCRSSQSLVHSNGRTYLEWYLQKPGQSPKVLIYKVSNRISGVPDRFSGSGSGTDFTLKISRVEAEDVGVYFCFQGSHVPYTFGQGTKVEIK
notes: HV.6 + LV.6
B3: in experiment [3], the binding entry is given as “binds”.

B4: anti-FGF-8 neutralizing CDR-grafted antibody HV0LV0 (antibody, V domains shown)
VH: QVQLVQSGAEVKKPGASVKVSCKASGYTFTDYYLNWVRQAPGQGLEWMGEIDPGSDSIYYNENLEGRVTITADTSTSTAYMELSSLRSEDTAVYYCARYGYSRYDVRFVYWGQGTLVTVSS
VL: DIVMTQSPLSLPVTPGEPASISCRSSQSLVHSNGRTYLEWYLQKPGQSPQLLIYKVSNRISGVPDRFSGSGSGTDFTLKISRVEAEDVGVYYCFQGSHVPYTFGQGTKVEIK
notes: HV.0 + LV.0
Turning to B4, the binding entry in experiment [3] was “binds”.
